Assay results reported in PMC10898606.
No constants are given. Whether binding was seen depends on the method and setting. Binding seen in cells or lysates may run through a third protein. Some results given as binding are weak or reduced against the parent protein; the word gives no strength.

Protein sequences, listed by entry. Tags and fused reporters are not part of them.
UniProt O64490: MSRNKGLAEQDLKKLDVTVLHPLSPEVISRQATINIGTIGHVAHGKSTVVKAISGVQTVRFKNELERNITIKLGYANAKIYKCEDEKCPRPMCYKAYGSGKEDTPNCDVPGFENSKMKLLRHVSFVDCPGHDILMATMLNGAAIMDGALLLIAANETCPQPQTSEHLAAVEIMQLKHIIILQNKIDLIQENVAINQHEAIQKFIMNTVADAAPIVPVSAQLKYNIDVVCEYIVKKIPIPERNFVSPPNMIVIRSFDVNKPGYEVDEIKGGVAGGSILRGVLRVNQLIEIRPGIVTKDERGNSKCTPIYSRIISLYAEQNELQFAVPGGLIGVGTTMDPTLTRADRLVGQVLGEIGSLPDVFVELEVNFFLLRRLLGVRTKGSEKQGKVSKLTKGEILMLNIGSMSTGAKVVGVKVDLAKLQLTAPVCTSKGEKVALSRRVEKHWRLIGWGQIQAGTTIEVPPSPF

Target: eIF2γ-YFP (synthesized in vitro) (Arabidopsis thaliana) (UniProt O64490)
Experiment: co-IP; in vitro eIF2 assembly: proteins made separately in a wheat germ translation system, mixed in equal proportions with CDC123 (WT), CDC123-D251N or control, 1 hr at room temperature (with or without 10 mM ATPγS), diluted in IP buffer, IP with GFP-Trap or anti-myc beads at 4 °C

- binding: binds
B1: eIF2β (synthesized in vitro) (protein, UniProt Q41969 1-268)
chain: MADEINEIREEQEQLAPFDPSKKKKKKKVVIQEPVEDLAESSQTEKSDSLPVNDGLESSFTGMKKKKKKPTESSLLNNESVDAGEDLDEIANDEQEGEEGIVLQQRYPWEGSERDYIYDELLGRVFNILRENNPELAGDRRRTVMRPPQVLREGTKKTVFVNFMDLCKTMHRQPDHVMQYLLAELGTSGSLDGQQRLVVKGRFAPKNFEGILRRYITDYVICLGCKSPDTILSKENRLFFLRCEKCGSQRSVAPIKTGFVARVSRRKT
